Results published in PubChem BioAssay (NCI).
This list holds what a sample rich in hits left over. The source made the active and inactive calls. Rule as the data show it: active = growth inhibition above about 70%; inactive = the rest.

Experiment: NCI Yeast Anticancer Drug Screen. Data for the wt1 strain (AID 149);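 also: 0% = growth of vehicle-treated wt1 cultures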
Settings: S. cerevisiae wt1 strain (SPY 50644) growth inhibition, stronger effect = higher value
Method: Growth inhibition of yeast strains with defined genetic alterations is measured as a screen for potential anti-cancer activity. Selected strains with alterations in DNA damage repair or cell cycle control were exposed to compounds and growth inhibition was measured relative to vehicle treated controls. The strain used in this assay is wt1

Measured: growth inhibition

O=C(CCN1CC1)Nc1ccccc1
inactive: at 1.2 µM -2% | at 3.7 µM -2% | at 11.0 µM -3% | at 33.0 µM -1% | at 100.0 µM 52%

CCCCN(CCCC)CC(=O)c1ccc(I)cc1
inactive: at 1.2 µM 0% | at 3.7 µM 6% | at 11.0 µM 7% | at 33.0 µM -2% | at 100.0 µM 10%

COc1cc2c3cc1Oc1c(O)c(OC)cc4c1[C@H](Cc1ccc(cc1)Oc1cc(ccc1O)C[C@H]3N(C)CC2)N(C)CC4
inactive: at 1.2 µM 1% | at 3.7 µM -4% | at 11.0 µM -4% | at 33.0 µM -4% | at 100.0 µM -7%

Cc1cc[c]([Sb]2[O]C(CO)C(C(O)C(O)C(=O)O)[O]2)cc1 (stereo not given)
inactive: at 1.2 µM 1% | at 3.7 µM -1% | at 11.0 µM 1% | at 33.0 µM 0% | at 100.0 µM -1%

CCOC(=O)CNP(=S)(OCC)OCC
inactive: at 1.2 µM -2% | at 3.7 µM -1% | at 11.0 µM 0% | at 33.0 µM 0% | at 100.0 µM 2%

O=C(NCP(=O)(Oc1ccccc1)Oc1ccccc1)OCc1ccccc1
inactive: at 1.2 µM -2% | at 3.7 µM -2% | at 11.0 µM 0% | at 33.0 µM -2% | at 100.0 µM -3%

O=P1(NNc2ncccn2)SC(NN=C2CCCCC2)=NC12CCCCC2 (stereo not given)
inactive: at 1.2 µM -1% | at 3.7 µM 0% | at 11.0 µM 0% | at 33.0 µM 6% | at 100.0 µM 13%

O=C(O)C(O)C(O)C1[O][Sb][O]C1CO (stereo not given)
inactive: at 1.2 µM 0% | at 3.7 µM 0% | at 11.0 µM 1% | at 33.0 µM 1% | at 100.0 µM 0%
